Results are given in words; binding and its absence hold for the method and conditions named. Binding seen in cells or lysates may run through a third protein. A yes stands for co-enrichment or nearness to the bait. Other partners may have been found. No binding means not detected with the bait.

Chains of the proteins cited; added tags and fusions are not shown. Lines headed by an entry give the natural chain unless they say otherwise; changes in a name come on top.
UniProt P35637: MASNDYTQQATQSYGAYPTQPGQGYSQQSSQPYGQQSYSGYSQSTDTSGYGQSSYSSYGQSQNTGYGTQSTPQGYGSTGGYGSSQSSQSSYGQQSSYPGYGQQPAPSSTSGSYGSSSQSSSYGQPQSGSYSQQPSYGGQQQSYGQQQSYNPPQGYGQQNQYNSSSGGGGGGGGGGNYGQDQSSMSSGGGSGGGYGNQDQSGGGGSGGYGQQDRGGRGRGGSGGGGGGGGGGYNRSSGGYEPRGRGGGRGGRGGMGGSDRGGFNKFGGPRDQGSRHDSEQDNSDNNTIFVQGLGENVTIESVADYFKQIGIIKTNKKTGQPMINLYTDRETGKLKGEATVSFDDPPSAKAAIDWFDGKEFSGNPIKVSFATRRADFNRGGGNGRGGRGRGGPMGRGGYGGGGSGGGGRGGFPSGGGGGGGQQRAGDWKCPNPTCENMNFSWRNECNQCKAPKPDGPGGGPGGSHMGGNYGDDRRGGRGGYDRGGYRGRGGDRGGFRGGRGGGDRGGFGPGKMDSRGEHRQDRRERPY
UniProt P27695: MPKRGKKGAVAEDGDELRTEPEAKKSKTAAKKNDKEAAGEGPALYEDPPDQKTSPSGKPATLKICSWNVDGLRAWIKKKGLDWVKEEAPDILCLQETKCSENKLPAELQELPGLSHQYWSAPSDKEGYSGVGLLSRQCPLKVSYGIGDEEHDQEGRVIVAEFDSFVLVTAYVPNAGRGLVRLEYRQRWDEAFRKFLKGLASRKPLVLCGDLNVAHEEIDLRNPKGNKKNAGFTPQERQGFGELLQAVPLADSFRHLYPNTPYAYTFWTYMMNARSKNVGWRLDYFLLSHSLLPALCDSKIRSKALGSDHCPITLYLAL
UniProt P28340: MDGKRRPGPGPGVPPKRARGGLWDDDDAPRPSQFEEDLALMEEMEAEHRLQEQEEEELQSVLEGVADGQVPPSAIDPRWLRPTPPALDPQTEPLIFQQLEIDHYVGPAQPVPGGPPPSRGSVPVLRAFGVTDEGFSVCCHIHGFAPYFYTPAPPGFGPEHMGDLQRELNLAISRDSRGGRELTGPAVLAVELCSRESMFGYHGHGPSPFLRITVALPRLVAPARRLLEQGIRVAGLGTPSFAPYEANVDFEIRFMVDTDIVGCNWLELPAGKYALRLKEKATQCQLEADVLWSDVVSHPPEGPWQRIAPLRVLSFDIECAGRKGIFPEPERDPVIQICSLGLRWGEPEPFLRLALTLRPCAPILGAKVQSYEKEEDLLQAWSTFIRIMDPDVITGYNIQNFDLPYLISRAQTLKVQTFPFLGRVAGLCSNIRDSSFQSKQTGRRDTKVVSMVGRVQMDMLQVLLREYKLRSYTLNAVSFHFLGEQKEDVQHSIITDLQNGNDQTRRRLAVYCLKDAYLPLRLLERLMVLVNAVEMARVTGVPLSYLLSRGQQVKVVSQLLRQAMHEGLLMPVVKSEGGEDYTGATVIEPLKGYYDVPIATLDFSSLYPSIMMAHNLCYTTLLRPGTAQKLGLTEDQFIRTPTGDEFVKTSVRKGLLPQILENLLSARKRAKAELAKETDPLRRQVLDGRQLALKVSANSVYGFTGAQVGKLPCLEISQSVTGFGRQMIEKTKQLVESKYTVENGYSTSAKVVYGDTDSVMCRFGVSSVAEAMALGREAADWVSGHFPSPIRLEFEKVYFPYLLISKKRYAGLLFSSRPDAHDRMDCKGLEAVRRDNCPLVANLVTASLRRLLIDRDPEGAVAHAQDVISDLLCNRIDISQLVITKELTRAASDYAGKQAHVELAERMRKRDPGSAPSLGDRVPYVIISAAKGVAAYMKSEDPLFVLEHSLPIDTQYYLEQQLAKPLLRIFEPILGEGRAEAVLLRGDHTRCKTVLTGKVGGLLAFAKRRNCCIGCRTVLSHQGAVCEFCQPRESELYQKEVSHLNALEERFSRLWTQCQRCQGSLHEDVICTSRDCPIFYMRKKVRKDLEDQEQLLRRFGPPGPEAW
UniProt P12956: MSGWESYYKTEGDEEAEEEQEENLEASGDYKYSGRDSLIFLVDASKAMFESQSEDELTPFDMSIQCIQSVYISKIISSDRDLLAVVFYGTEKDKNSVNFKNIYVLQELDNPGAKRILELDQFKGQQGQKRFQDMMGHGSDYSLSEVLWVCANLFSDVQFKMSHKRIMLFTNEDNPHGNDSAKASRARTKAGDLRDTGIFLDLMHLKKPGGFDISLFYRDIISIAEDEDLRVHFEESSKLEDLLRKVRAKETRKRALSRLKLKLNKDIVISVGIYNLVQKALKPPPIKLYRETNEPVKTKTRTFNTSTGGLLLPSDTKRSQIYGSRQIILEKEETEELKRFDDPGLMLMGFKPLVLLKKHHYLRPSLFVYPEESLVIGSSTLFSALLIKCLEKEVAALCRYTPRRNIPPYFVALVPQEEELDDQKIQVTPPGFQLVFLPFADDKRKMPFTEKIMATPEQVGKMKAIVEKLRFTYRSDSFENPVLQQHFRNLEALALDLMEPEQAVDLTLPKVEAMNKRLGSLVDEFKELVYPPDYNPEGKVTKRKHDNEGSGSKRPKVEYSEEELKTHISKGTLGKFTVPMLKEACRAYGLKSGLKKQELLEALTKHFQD
UniProt Q5UIP0: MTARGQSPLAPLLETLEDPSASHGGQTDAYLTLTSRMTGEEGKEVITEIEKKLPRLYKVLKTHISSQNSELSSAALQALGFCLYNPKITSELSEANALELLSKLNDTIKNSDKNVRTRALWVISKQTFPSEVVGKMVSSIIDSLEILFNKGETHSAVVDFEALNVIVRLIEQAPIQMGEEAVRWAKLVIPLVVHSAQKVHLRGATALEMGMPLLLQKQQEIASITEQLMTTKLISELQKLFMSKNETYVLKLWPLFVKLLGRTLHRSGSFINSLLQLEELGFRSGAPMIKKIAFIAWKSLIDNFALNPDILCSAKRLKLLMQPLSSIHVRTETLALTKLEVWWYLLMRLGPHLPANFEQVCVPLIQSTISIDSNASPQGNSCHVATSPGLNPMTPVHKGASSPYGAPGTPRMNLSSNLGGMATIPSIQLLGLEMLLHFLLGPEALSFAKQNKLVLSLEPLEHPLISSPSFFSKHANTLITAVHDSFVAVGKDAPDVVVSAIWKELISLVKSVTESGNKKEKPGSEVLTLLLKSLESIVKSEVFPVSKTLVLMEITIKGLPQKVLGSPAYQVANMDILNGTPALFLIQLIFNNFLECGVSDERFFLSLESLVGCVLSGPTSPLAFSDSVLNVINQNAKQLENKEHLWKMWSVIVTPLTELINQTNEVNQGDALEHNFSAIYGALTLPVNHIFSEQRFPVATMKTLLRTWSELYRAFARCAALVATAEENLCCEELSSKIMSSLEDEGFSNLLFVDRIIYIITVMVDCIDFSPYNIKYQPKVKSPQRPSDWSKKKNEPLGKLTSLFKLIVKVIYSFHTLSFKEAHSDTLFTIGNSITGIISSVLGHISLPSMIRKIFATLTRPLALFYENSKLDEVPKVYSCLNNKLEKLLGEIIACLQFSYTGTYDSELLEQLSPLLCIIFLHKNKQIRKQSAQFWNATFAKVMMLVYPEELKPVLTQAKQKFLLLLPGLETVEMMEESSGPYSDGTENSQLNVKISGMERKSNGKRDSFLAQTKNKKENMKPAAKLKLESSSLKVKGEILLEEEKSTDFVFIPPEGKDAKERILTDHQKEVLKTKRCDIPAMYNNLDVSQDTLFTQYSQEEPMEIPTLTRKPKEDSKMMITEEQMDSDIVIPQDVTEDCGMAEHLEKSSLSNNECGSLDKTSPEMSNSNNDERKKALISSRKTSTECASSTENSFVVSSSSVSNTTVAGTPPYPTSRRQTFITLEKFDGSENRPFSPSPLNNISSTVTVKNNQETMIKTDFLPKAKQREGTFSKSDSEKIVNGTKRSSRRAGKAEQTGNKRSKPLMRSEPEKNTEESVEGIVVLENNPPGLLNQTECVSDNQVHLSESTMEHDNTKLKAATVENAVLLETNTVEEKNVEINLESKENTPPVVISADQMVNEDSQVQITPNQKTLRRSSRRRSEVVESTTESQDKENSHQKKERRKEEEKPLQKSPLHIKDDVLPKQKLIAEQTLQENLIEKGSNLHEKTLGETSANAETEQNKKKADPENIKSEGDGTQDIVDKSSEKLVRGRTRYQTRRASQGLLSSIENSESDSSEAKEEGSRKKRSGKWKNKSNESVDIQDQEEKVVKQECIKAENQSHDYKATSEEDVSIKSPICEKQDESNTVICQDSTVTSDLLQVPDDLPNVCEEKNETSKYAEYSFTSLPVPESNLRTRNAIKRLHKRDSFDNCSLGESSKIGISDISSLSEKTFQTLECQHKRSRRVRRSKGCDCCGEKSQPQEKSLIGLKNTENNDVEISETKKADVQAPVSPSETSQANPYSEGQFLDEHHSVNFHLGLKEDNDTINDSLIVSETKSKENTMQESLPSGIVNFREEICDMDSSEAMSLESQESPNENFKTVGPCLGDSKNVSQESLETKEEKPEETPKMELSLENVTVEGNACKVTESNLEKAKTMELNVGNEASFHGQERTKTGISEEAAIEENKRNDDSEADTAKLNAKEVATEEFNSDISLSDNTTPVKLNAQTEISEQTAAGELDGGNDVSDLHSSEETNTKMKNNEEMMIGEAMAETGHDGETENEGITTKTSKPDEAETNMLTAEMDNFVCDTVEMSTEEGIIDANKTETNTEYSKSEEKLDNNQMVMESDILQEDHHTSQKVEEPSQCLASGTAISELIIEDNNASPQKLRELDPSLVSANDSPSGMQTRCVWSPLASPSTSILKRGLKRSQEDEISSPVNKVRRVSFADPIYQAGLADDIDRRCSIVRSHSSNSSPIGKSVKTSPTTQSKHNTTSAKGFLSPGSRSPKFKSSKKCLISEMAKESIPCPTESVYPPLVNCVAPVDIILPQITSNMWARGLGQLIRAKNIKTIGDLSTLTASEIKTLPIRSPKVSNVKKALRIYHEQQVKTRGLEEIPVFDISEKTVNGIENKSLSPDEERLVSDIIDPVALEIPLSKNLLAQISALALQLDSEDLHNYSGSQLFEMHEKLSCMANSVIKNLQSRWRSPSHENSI
UniProt P09874: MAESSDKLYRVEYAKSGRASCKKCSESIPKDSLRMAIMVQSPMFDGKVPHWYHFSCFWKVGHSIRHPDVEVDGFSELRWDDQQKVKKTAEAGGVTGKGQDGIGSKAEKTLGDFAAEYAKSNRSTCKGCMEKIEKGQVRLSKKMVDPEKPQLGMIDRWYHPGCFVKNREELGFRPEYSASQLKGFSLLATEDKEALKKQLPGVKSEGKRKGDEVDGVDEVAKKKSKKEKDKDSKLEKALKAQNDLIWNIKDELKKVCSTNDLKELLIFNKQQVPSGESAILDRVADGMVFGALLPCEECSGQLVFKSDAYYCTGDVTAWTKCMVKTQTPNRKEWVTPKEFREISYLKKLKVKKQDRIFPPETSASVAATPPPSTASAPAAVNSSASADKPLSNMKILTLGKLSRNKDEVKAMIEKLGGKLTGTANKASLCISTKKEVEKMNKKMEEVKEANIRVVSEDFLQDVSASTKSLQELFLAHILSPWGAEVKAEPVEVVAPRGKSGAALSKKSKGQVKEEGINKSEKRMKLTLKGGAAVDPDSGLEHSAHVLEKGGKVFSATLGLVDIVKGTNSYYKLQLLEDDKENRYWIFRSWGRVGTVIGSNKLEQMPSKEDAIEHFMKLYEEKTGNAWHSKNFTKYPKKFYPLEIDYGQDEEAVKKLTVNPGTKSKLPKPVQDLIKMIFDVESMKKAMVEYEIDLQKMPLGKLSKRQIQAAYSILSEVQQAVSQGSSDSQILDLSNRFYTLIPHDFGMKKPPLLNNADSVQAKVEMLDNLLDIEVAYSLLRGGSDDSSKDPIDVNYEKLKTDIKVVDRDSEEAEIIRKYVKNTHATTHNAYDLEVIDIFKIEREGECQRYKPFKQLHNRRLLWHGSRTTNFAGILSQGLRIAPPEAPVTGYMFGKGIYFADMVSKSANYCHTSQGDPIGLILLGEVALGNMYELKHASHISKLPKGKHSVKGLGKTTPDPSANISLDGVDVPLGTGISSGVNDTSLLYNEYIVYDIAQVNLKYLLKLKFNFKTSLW
UniProt P12004: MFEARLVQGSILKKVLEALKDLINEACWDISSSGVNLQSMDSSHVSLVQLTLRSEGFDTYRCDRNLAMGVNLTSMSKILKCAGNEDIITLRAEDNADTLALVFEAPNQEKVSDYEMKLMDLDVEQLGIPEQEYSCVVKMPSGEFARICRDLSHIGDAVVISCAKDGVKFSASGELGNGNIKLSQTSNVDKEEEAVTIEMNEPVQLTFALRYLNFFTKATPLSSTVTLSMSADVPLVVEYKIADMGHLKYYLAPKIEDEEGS

The target of the experiment is Fused in sarcoma (FUS) (human (endogenous in U-2 OS)) (UniProt P35637). Briefly: affinity purification with mass spectrometry; rapid IP MS of endogenous proteins: U-2 OS cells fixed with 1% formaldehyde, nuclei digested with benzonase, IP with anti-FUS antibody (Bethyl A300-302A) and protein G Dynabeads, RIPA washes, label-free quantitative MS; FUS-/- cells as negative control.

Consider “APEX1 (from UniProt P27695 1-318) (other; other documents disagree on this pair)”, for which the binding result is given as “binds”.

As to “DNA polymerase δ (POLδ or POLD1) (from UniProt P28340 1-1107)”, the binding entry is on record as “binds”.

As to DNA-PK (from UniProt P78527 1-4128), the binding entry is “binds”.

Ku70 (from UniProt P12956 1-609): the binding entry was “binds”.

With Ku80 (from UniProt P13010 1-732), the binding entry is given as “binds”.

As for RIF1 (from UniProt Q5UIP0 1-2472), the binding entry is reported as “no binding”.

On to TOP1 (from UniProt P11387 1-765), for which the binding entry is given as “binds”.

Take “poly(ADP)-ribosyl (PAR) polymerase 1 (PARP1) (from UniProt P09874 1-1014)”: the binding result is listed as “binds”.

Turning to “proliferating cell nuclear antigen (PCNA) (from UniProt P12004 1-261)”, the binding result is “binds”.

The values are drawn from paper PMC8403768.
